Record: PubChem BioAssay AID1224826 (NIAID, 2016)
This is a random part of about 17,000 reagents. In the full data, about 1,110 (6.6%) got an active call. 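Active means lowered or raised reporter signal; replicate intensities are raw and not normalised per plate.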 Not all columns of the deposit are shown.

- Assay: 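Genes that change LPS-induced Tnf promoter activity in mouse macrophages when knocked down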 (primary screen)
- System: RAW264.7 G9 macrophages from mouse bearing reporters for p65 (GFP) and the Tnf promoter (mCherry)
- Reagent: siRNA pool against mouse genes, 100 nM
- Time to read-out: 16 h of LPS stimulation, after 2 days of siRNA transfection
- Treatment: bacterial lipopolysaccharide (Salmonella minnesota R595), 10 ng/ml
- Detection: 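Nuclear mCherry signal of the Tnf promoter reporter measured by imaging after background removal, scaled to each plate median and turned into robust z-scores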
- Reading the numbers: Tnf reporter robust z-score: higher = stronger Tnf promoter reporter signal after LPS
- Hit rule: 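a well counts as active at a score of -1.3 or below (Tlr4 knock-down control median) or above 3 (raised signal); controls and wells holding fewer than 50 cells are excluded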
- Calls: active = Tnf reporter clearly lowered or raised; inactive = no clear change in Tnf reporter

Or2y1d — Tnf reporter robust z-score: -1.26; fewer than 50 cells in well: enough cells in well; activity call: inactive
Slc5a3 — Tnf reporter robust z-score: -1.23; fewer than 50 cells in well: enough cells in well; activity call: inactive
Got2 — Tnf reporter robust z-score: -0.7; fewer than 50 cells in well: enough cells in well; activity call: inactive
Nacc2 — Tnf reporter robust z-score: -0.17; fewer than 50 cells in well: enough cells in well; activity call: inactive
Cbln1 — Tnf reporter robust z-score: -0.36; fewer than 50 cells in well: enough cells in well; activity call: inactive
Akr1c14 — Tnf reporter robust z-score: -0.44; fewer than 50 cells in well: enough cells in well; activity call: inactive
Ftsj1 — Tnf reporter robust z-score: 0.3; fewer than 50 cells in well: enough cells in well; activity call: inactive
Defb14 — Tnf reporter robust z-score: 0.45; fewer than 50 cells in well: enough cells in well; activity call: inactive
Casp4 — Tnf reporter robust z-score: -1.58; fewer than 50 cells in well: enough cells in well; activity call: active
Plppr1 — Tnf reporter robust z-score: 2.18; fewer than 50 cells in well: enough cells in well; activity call: inactive
Mei4 — fewer than 50 cells in well: fewer than 50 cells per well; well left out of calls; activity call: inactive
Ccdc122 — Tnf reporter robust z-score: 0.41; fewer than 50 cells in well: enough cells in well; activity call: inactive
Mst1 — Tnf reporter robust z-score: 0.6; fewer than 50 cells in well: enough cells in well; activity call: inactive
Vwa3b — Tnf reporter robust z-score: 0.07; fewer than 50 cells in well: enough cells in well; activity call: inactive
Fam222b — Tnf reporter robust z-score: -0.71; fewer than 50 cells in well: enough cells in well; activity call: inactive
Actn2 — Tnf reporter robust z-score: 0.53; fewer than 50 cells in well: enough cells in well; activity call: inactive
Epx — Tnf reporter robust z-score: -0.1; fewer than 50 cells in well: enough cells in well; activity call: inactive
Acap1 — Tnf reporter robust z-score: 0.37; fewer than 50 cells in well: enough cells in well; activity call: inactive
Psmc2 — fewer than 50 cells in well: fewer than 50 cells per well; well left out of calls; activity call: inactive
Mrm1 — Tnf reporter robust z-score: 0.23; fewer than 50 cells in well: enough cells in well; activity call: inactive
Gnb5 — Tnf reporter robust z-score: -1.22; fewer than 50 cells in well: enough cells in well; activity call: inactive

A stretch of the results above:
Or2y1d — Tnf reporter robust z-score: -1.26; fewer than 50 cells in well: enough cells in well; activity call: inactive
Slc5a3 — Tnf reporter robust z-score: -1.23; fewer than 50 cells in well: enough cells in well; activity call: inactive
Got2 — Tnf reporter robust z-score: -0.7; fewer than 50 cells in well: enough cells in well; activity call: inactive
